## Results of single-concentration screens

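Assay of Toxoplasma gondii numbers, read through their beta-galactosidase reporter with a colour substrate. Concentration: 10 µM. The record gives no direction; the compounds picked for IC50 retests had high values, so higher reads as fewer parasites. About 67,000 compounds were tested under these conditions; 0.38% (about 260) showed 50% or more at least once.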

Results are given as percent effect.
The record does not define 0% and 100%; most values in the screen are far below 50% and negative numbers occur (in some assays of this library far below -100).
The compounds are a random part of those screened.

Compound | Percent Effect
Nc1c(N2CCOCC2)ncnc1N1CCOCC1 | 5.835%
CCc1nc(Nc2cccc(C(=O)NC)c2)c2c(n1)c(C)nn2CC | 63.37%
Cc1cccnc1NC(=O)c1ccc(-n2ncc(C#N)c2N)cc1 | -6.399%
CCCc1nnsc1C(=O)NCC(O)c1ccoc1 (stereo not drawn) | 3.701%
CC(=O)N(Cc1c(F)cccc1F)C1CCCC1 | -35.99%
Cn1cc(CC2CCN(C(=O)NCc3cn4ccsc4n3)C2)cn1 (stereo not drawn) | -1.357%
CC(C)C(c1cccnc1)N(C)C(=O)Cc1c(F)cccc1F (stereo not drawn) | -23.66%
Cc1nn2c(N3CCC(C(N)=O)CC3)cc(-c3ccccc3)nc2c1C | 11.07%
Cc1[nH]ncc1C(=O)N1CCOC(c2cccs2)C1 (stereo not drawn) | -24.27%
Cc1ccc(-c2cc(C3CCNCC3)nc(C)n2)cc1.Cl | 0.9859%
O=C(O)C(F)(F)F.[H][C@@]12COC[C@]1(COCC)CN(Cc1ccc3c(c1)OCO3)C2 | 32.77%
CC(NC(=O)NCC1(c2ccccc2)CCC1)c1nncn1C (stereo not drawn) | -4.708%
CC(c1ccc(Cl)cc1)N1CCN(CCCS(N)(=O)=O)CC1 (stereo not drawn) | -1.329%
Cn1cc(S(=O)(=O)NCC(C)(O)c2ccsc2)cn1 (stereo not drawn) | 14.16%
Cc1c(C(=O)O)cnn1-c1ccc(-c2nc(C3CC3)no2)cn1 | 9.704%
Cc1cc2n(n1)CC(CNCc1cc(C)on1)CN2 (stereo not drawn) | 11.5%
[H][C@@]12COC[C@H](C(=O)N3CCOCC3)[C@]1([H])CN(C1CCCC1)C2 | -16.44%
Cn1cnc(S(=O)(=O)NCC(C)(O)c2ccc3c(c2)OCO3)c1 (stereo not drawn) | 11.45%
Cc1c(C(C)NCC2CCCC2)cnn1-c1ccc(F)cc1F (stereo not drawn) | 7.255%
[H][C@@]12C[C@H](C(=O)NC3CC3)CN(Cc3ccco3)[C@]1([H])CCO2 | 5.419%
Cc1ccccc1CN(CC(=O)O)C(=O)COCC1CC1 | -4.322%
CC(=O)Nc1ccc(OCc2noc(C(=O)N3CCCCCC3)n2)cc1 | -12.09%
CC(NC(=O)CNS(C)(=O)=O)c1ccccc1Oc1ccccc1 (stereo not drawn) | -1.591%
Cc1nc(CN2C(=O)CCC23CCN(Cc2ccoc2)CC3)cs1.O=C(O)C(F)(F)F.O=C(O)C(F)(F)F | 17.03%
CC(C(=O)N1CCN(C(=O)c2ccc(F)cc2F)CC1)n1ccnc1 (stereo not drawn) | 0.3045%
CCc1ccc(CN2Cc3nccn3CC(CN3CCOCC3)C2)o1.O=C(O)C(F)(F)F.O=C(O)C(F)(F)F.O=C(O)C(F)(F)F (stereo not drawn) | -3.824%
CC(C)CN1C(=O)c2ccc(C(=O)NCCc3c[nH]cn3)cc2C1=O | 2.989%
Cc1c(NC(=O)N(C)CCCc2cnn(C)c2)cnn1C | -3.683%
CN(CCSc1nncn1CC(F)(F)F)c1ccccc1 | 11.71%
Cc1cc(-c2c[nH]nc2C2CCCCN2C(=O)c2ccccc2)on1 (stereo not drawn) | 8.269%
COc1c(CNCCNC(=O)c2ccc(C)c(F)c2)c(C)nn1C | -4.946%
Nc1nccc(N2CCC(c3cc(Cc4ccccc4)n[nH]3)CC2)n1 | 46.75%
Cc1cnn(CC2CCCN2CC(=O)N(C)Cc2ccsc2)c1 (stereo not drawn) | 1.138%
COc1ccc(C(CNC(=O)NCc2csc(C)n2)N(C)C)cc1 (stereo not drawn) | 2.202%
COCC1c2nnn(C)c2CCN1C(=O)COc1ccccc1C (stereo not drawn) | 0.6252%
CCN1CCc2[nH]cnc2C12CCN(C(=O)CCCn1cncn1)CC2 | -15.75%
O=C(NCC1CCCCO1)c1cc(Cn2cnc3ccccc32)[nH]n1 (stereo not drawn) | 0.02959%
CCOCCC(=O)Nc1ccnn1-c1ccc(Cl)cc1 | -1.702%
COCc1nc(Cn2ncn3cccc3c2=O)no1 | -0.8051%
c1cc(-c2nnc([C@H]3CCN(C4CCCCC4)C3)o2)ccn1 | 13.54%
O=C(O)C(F)(F)F.[H][C@@]12CCN(Cc3ccco3)C[C@]1([H])[C@@H](CNC(=O)c1ccnnc1)OC2 | -4.091%
CC(C)(C)OC(=O)N1CCCN(Cc2ccon2)c2ccccc21 | -4.853%
O=C(O)C(F)(F)F.[H][C@@]12CN(c3ccc(C)nn3)C[C@@H](C(=O)NCC3CC3)[C@]1([H])CCO2 | -34.33%
O=C(O)C(F)(F)F.O=C(O)C(F)(F)F.[H][C@@]12COC[C@@H](CC(=O)NCC3CC3)[C@]1([H])CN(Cc1cccnc1)C2 | -34.82%
O=C(O)C(F)(F)F.[H][C@@]12CCN(Cc3ccsc3)C[C@]1([H])[C@H](C(=O)N1CCCC1)CCO2 | -4.497%
Fc1cccc(Oc2nccnc2C2CCN(C3CCOCC3)CC2)c1 | -23.03%
COc1ccccc1C1CC(=O)Nc2c1c(=O)[nH]n2C(C)C (stereo not drawn) | -4.034%
O=C(NCC1CCOC1)c1csc(Cc2ccccc2)n1 (stereo not drawn) | 7.876%
O=C(Nc1cccnc1N1CCSCC1)c1cc2c(s1)CCCCC2 | -8.439%
COc1ccc(C(=O)N2CCC(Oc3ccccc3C)(C(=O)O)CC2)o1 | -7.05%
CN(C)C(=O)NCc1cc(=O)n2c(n1)CN(Cc1ccoc1)CCC2.O=C(O)C(F)(F)F | 1.364%
O=C(c1ccccc1-c1nc[nH]n1)N1CCOC(C(F)(F)F)C1 (stereo not drawn) | 1.027%
CCn1cnnc1CNC(=O)N1CCC(CN2CCCCCC2)CC1 | -7.304%

For reference, 3 entries once more:

{"compound": "[H][C@@]12COC[C@H](C(=O)N3CCOCC3)[C@]1([H])CN(C1CCCC1)C2", "Percent Effect": -16.44}
{"compound": "Cc1cc(-c2c[nH]nc2C2CCCCN2C(=O)c2ccccc2)on1", "stereo": "stereo not drawn", "Percent Effect": 8.269}
{"compound": "Cc1cnn(CC2CCCN2CC(=O)N(C)Cc2ccsc2)c1", "stereo": "stereo not drawn", "Percent Effect": 1.138}

The values are deposited in ChEMBL (CHEMBL3988442, “University of Dundee, Small-Polar-MMV Screening Library” (2021)).